The target of the assay is GST-SPF45/∆G (human) (UniProt Q96I25). Put plainly: pull-down; GST fusion protein (5 µg) incubated at 30 °C for 15 min in 100 µL with 30% HeLa cell nuclear extract; RNase A treatment; NET2 buffer [50 mM Tris (pH 7.5), 150 mM NaCl, 0.05% Nonidet P-40]; Glutathione Sepharose 4B, 4 °C for 3 h; six washes; Western blotting; only the target purified. Background: A western blot detects proteins with antibodies after separation by electrophoresis.

The chains behind the UniProt entries cited, without tags or fusion partners. Where a name states a change or a piece, a line headed by the entry shows the natural chain unless it says otherwise.
UniProt Q96I25: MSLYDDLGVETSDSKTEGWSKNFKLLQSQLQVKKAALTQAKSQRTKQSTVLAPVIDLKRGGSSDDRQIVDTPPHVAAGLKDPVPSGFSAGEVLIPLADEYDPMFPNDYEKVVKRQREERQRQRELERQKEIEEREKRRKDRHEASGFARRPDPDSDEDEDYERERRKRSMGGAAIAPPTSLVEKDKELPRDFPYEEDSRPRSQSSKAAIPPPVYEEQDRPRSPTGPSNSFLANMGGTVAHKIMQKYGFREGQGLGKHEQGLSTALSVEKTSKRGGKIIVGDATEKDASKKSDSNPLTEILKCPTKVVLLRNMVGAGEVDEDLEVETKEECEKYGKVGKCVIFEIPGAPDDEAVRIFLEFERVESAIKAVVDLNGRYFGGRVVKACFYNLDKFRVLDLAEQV
UniProt O75533: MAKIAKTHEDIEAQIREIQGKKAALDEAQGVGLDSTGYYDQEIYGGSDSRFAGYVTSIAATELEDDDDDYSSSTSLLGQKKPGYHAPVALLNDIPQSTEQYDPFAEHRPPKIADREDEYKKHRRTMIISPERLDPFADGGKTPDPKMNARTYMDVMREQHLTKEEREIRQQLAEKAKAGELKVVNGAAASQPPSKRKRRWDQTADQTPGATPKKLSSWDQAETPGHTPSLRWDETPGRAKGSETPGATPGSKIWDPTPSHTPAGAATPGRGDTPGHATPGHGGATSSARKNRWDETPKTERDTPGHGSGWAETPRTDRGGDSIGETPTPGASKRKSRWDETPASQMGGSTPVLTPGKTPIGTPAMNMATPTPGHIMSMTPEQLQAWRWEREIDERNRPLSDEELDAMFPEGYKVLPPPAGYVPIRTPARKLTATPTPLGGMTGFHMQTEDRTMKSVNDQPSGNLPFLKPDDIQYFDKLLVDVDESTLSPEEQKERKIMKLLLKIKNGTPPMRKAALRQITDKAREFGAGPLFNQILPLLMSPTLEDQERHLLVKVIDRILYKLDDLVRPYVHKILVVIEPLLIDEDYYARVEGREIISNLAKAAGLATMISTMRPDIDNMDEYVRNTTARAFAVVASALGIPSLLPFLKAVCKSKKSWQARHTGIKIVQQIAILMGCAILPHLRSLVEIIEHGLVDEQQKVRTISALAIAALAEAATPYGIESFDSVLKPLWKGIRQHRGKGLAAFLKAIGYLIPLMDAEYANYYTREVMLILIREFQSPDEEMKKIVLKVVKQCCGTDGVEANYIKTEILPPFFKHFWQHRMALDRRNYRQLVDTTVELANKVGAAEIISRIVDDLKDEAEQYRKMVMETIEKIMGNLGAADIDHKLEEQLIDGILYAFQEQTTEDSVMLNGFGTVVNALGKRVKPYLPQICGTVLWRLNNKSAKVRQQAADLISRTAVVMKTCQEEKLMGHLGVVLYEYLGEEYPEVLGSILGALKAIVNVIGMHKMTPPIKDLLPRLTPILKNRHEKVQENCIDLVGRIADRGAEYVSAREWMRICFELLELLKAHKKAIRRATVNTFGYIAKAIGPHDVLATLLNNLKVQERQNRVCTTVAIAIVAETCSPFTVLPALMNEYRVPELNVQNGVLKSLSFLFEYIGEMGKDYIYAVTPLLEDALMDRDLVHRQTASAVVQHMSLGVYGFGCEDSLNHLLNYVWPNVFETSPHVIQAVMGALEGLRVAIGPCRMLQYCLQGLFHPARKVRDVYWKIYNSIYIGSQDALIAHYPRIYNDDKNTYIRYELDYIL

These are yes or no findings as the source states them, for the method shown. Binding seen in cells or lysates may run through a third protein. Binding can be weak; no strength is given.

As to SF3b155 (from UniProt O75533 1-1304), the binding result is “binds”.

The values above are taken from publication PMC8363638.
